Measured values reported in publication PMC2903597.
No constants are given. Whether binding was seen depends on the method and setting. In cells and extracts the contact can be indirect. Binding can be weak; no strength is given. Where a sequence is shown, tags or fusion partners need not be part of it.

Tests used:
Test in all cases: co-IP; FLAG- and GFP-tagged proteins coexpressed in HEK293 cells, immunoprecipitation with anti-FLAG antibody, Western blotting with anti-FLAG and anti-GFP antibodies
[1] = target: T1, FLAG-mLgl2-C (UniProt Q3TJ91)
T1 sequence: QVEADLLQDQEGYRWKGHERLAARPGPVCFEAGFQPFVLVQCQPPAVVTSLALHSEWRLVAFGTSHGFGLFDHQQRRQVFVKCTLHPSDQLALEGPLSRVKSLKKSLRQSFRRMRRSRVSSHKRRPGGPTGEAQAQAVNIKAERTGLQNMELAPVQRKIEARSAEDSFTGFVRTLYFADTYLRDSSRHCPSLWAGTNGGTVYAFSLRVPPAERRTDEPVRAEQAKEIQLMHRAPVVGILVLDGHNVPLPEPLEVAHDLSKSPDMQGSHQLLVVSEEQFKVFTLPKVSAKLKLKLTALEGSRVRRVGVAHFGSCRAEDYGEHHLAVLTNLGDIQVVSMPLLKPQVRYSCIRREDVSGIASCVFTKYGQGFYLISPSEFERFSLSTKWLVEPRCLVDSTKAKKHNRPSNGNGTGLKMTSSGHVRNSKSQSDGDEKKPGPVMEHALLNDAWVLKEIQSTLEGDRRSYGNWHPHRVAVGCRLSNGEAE

[2] = target: T2, FLAG-mLgl1 (UniProt Q80Y17)
T2 sequence: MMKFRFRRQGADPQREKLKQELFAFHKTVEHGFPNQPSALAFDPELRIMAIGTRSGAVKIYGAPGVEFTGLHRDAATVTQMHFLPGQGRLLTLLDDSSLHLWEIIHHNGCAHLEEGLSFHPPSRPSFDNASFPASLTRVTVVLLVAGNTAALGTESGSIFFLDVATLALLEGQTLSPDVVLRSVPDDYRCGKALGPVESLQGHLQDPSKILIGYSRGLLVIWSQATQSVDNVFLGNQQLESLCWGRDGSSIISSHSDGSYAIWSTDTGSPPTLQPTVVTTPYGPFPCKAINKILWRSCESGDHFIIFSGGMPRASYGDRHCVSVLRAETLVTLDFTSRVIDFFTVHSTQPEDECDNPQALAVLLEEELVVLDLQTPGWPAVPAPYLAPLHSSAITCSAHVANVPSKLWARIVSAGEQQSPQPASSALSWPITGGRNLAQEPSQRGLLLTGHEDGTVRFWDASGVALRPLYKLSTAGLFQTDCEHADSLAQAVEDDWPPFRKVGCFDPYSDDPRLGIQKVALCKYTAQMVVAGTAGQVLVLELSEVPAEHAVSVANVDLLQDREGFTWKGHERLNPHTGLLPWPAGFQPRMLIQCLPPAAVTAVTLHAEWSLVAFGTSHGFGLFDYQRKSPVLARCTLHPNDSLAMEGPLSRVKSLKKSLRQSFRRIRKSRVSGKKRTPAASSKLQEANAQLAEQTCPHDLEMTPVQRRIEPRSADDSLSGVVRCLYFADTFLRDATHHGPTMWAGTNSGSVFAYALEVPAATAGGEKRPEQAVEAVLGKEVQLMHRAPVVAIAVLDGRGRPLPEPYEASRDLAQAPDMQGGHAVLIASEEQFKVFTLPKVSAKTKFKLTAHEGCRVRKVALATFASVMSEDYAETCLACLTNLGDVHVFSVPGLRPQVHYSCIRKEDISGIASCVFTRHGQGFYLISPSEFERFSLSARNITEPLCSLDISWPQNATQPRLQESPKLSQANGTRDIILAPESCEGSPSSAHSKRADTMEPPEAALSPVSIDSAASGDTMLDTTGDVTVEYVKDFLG

[3] = target: T3, FLAG-mLgl2-WT (UniProt Q3TJ91)
T3 sequence: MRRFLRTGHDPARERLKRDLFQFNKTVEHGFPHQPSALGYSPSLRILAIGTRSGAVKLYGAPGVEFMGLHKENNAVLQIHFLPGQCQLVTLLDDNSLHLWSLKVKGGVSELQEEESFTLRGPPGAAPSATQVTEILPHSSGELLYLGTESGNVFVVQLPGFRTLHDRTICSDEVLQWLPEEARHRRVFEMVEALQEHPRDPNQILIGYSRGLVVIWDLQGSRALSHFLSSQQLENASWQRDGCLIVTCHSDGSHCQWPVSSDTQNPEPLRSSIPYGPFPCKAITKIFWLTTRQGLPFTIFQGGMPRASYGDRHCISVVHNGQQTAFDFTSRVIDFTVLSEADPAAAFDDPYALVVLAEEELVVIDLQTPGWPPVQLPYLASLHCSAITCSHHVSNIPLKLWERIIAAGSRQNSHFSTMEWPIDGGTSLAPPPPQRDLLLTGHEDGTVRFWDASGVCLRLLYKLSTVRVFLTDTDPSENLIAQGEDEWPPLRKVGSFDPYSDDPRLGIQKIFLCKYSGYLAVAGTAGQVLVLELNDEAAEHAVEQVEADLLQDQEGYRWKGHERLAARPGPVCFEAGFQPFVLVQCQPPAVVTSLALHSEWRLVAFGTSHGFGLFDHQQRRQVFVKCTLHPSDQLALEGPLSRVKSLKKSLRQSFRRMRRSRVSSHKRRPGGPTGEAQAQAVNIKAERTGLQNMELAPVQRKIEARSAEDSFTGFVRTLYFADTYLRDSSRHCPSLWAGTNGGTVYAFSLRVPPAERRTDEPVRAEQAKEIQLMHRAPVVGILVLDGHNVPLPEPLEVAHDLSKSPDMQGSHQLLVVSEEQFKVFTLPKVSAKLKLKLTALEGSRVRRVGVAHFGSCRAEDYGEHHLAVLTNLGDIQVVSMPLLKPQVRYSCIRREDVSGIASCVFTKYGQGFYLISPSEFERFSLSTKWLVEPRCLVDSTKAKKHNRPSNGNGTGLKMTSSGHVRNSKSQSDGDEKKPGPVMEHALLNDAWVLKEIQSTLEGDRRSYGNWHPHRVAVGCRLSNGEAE

Measured: binding

GFP-VprBP-WT (GFP-tagged shorter VprBP isoform) (human)
binds: [1] | [2] | [3]
